Test results from paper PMC11883000, “Structure-function relationship of ASH1L and histone H3K36 and H3K4 methylation” (Nature Communications, 2025).

What was measured:
[1] = target: ASH1L bromodomain (aa 2430-2564) (human) (UniProt Q9NR48); test: NMR titration; 1H,15N HSQC chemical shift perturbation; unlabelled ligand (histone peptide or ASH1LSET) added to 0.1-0.2 mM 15N-labelled protein; 298 K; 25 mM Tris pH 7.5, 150 mM NaCl, 5 mM DTT; both purified
[2] = target: ASH1L plant homeodomain (PHD) finger, wild type (aa 2579-2629) (human) (UniProt Q9NR48); test: as above

- binding [1]: binds
- binding [2]: no binding
Substance: ASH1L SET domain, isolated (from UniProt Q9NR48) (domain or fragment)

No constants are given. Whether binding was seen depends on the method and setting. For some assays here: A result given as binding can be weak or reduced; the word gives no strength.
